In the RNAGym collection of RNA variant scans (doi:10.1126/science.aae0568):
Variants at the floor of the assay are shown more often than the library holds them.

B1: tRNA (parent)
chain: GUUCCGUUGGCGUAAUGGUAACGCGUCUCCCUCCUAAGGAGAAGACUGCGGGUUCGAGUCCCGUACGGAACG

Variants of: B1
Test: yeast fitness relative to wild type (ratio to wild type); higher = fitter; tRNA-Arg(CCU), competitive growth, 37 C, YPD
Method in brief: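 Variants of the tRNA-Arg(CCU) gene, chemically synthesised with a 3% per-site mutation rate at 69 sites, were placed at the native genomic locus in Saccharomyces cerevisiae. The pooled strains were competed in YPD at 37°C for 24 hours in six parallel replicates. Gene amplicons from the start population and from each end population were read by 100-nucleotide paired-end sequencing. Darwinian fitness relative to wild type came from changes in genotype frequencies; genotypes needed ≥ 100 starting reads, and estimates < 0.5 were set to 0.5.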

A14U C30A A65C and A14G C24G C31U C66G cannot be ordered by yeast fitness: at most 0.5 for the first, at most 0.5 for the second.

U35C C55G C66U A70C and C27U C29U G51U cannot be ordered by yeast fitness: at most 0.5 for the first, at most 0.5 for the second.

A20U C27A A40C C46A and C22G C31G U59C cannot be ordered by yeast fitness: at most 0.5 for the first, at most 0.5 for the second.

C5G C29U U32A A37U G38C and A15C C30G A57U A70C cannot be ordered by yeast fitness: at most 0.5 for the first, at most 0.5 for the second.

A20U C31U G56A C61U and C22A C30U A69C cannot be ordered by yeast fitness: at most 0.5 for the first, at most 0.5 for the second.

First: C24G C27G A37C A45U A65G
Second: G9C C11G G12C U28C C61U
The yeast fitness of the first is lower: at most 0.5 for the first, 0.747 for the second.

Compared with G6A A14G A42G, C5U G6A C22G C29A A45U is lower in yeast fitness: 0.549 for the first, at most 0.5 for the second.

Going from C24G C62A to C49G G50C C62U, the yeast fitness rises from at most 0.5 to 0.539.

C4U G10A G25A U35G and U13C C27U U32C A69U cannot be ordered by yeast fitness: at most 0.5 for the first, at most 0.5 for the second.

A15G C31A G41C G56A G58C and C27U G39C C60A cannot be ordered by yeast fitness: at most 0.5 for the first, at most 0.5 for the second.

Compared with G18C G48A C66U, U2C A14C U16C C46G A57C U59C is lower in yeast fitness: 0.545 for the first, at most 0.5 for the second.

C5A U19C C29G C31U G58C and A14U A45C C49U A65C cannot be ordered by yeast fitness: at most 0.5 for the first, at most 0.5 for the second.

U19A U26C C30A A43C and G10A A42C A69U cannot be ordered by yeast fitness: at most 0.5 for the first, at most 0.5 for the second.

Going from U7G U13C C31U to G12A U13C C22A U26C, the yeast fitness falls from 0.903 to at most 0.5.

First: C4G A20C U54G
Second: G52A C60A C66G
The yeast fitness of the first is higher: 0.529 for the first, at most 0.5 for the second.

Compared with G12A G25A U32C, U47C A65U C66A A69C is lower in yeast fitness: 0.749 for the first, at most 0.5 for the second.

U7C C29G C31A G67C and U19A U26C C49G C66G cannot be ordered by yeast fitness: at most 0.5 for the first, at most 0.5 for the second.

Compared with A20U U28C G44A C46U G48A, C55A C61A is higher in yeast fitness: at most 0.5 for the first, 0.579 for the second.

C5G U54C C62U G68C and U19G C31U U32A A45U A70U cannot be ordered by yeast fitness: at most 0.5 for the first, at most 0.5 for the second.

U35C A42U C62U A70C and C22A C27U C30G A45U cannot be ordered by yeast fitness: at most 0.5 for the first, at most 0.5 for the second.

First: C5G G9C A43G
Second: C11A C27G U35A A43U U54C
The yeast fitness of the first is higher: 0.667 for the first, 0.556 for the second.

A37U C49A C66U and C11G A20C A69U cannot be ordered by yeast fitness: at most 0.5 for the first, at most 0.5 for the second.

C4U A36C U59C and U3A C33G G67A cannot be ordered by yeast fitness: at most 0.5 for the first, at most 0.5 for the second.

Going from U3A G6A U7C C62G G63C to U3A A15C G17C, the yeast fitness rises from at most 0.5 to 0.507.

C5G C24U A43U C55U G68C and G41C A57U U64C cannot be ordered by yeast fitness: at most 0.5 for the first, at most 0.5 for the second.

A14C C27G C33A A45U G63C and C27G A36C G48C cannot be ordered by yeast fitness: at most 0.5 for the first, at most 0.5 for the second.

U2A C5U C29G A40C A42C and C11U A20C G25C C27A A37U C61U cannot be ordered by yeast fitness: at most 0.5 for the first, at most 0.5 for the second.

C24A C62U A70C and G17C C30G C55G A70G cannot be ordered by yeast fitness: at most 0.5 for the first, at most 0.5 for the second.

Going from C34A A40G to A14C A69C, the yeast fitness rises from 0.609 to 0.654.

C5G C11G A14U A15U C24A C33G C49G A65G and A14C C49G G68U cannot be ordered by yeast fitness: at most 0.5 for the first, at most 0.5 for the second.

Going from U32C C49A to U8A C29U C31A G38A, the yeast fitness falls from 0.692 to at most 0.5.

C11G C46G G52A and C11G G63U cannot be ordered by yeast fitness: at most 0.5 for the first, at most 0.5 for the second.

G9C G10C A69G A70G and A15G G50C C60U cannot be ordered by yeast fitness: at most 0.5 for the first, at most 0.5 for the second.

A14C C24A C61A and U8C A15C A21U cannot be ordered by yeast fitness: at most 0.5 for the first, at most 0.5 for the second.

G9C A45G G51A and C5A C22U C49U G50C A65C cannot be ordered by yeast fitness: at most 0.5 for the first, at most 0.5 for the second.

C4G C33G A43C and C11G C22U C49U U53C G68C cannot be ordered by yeast fitness: at most 0.5 for the first, at most 0.5 for the second.

U16A C24G C60A C61G and C33U U47C G48A G58A C66U cannot be ordered by yeast fitness: at most 0.5 for the first, at most 0.5 for the second.

U2A C5A A21C and C11G A14G A15U G23C U53A cannot be ordered by yeast fitness: at most 0.5 for the first, at most 0.5 for the second.

Compared with U19A C29A U47A G51A U54G C60U C62U, C5U U7A C30A G58C is higher in yeast fitness: at most 0.5 for the first, 0.543 for the second.

C27A A45G G48C and A20C A45G A65U C66G cannot be ordered by yeast fitness: at most 0.5 for the first, at most 0.5 for the second.

Going from U2A C5G A15G G56A to C4G A20U C46U, the yeast fitness rises from at most 0.5 to 0.614.

A15G G52A C55U and A43U A45G C55G cannot be ordered by yeast fitness: at most 0.5 for the first, at most 0.5 for the second.

G12C A14G C22U U54C C61U and U19A C24U C29A cannot be ordered by yeast fitness: at most 0.5 for the first, at most 0.5 for the second.

Going from U3C G25A A45G to C29G A40C G68A, the yeast fitness falls from 0.59 to at most 0.5.

G51A U53C C62U and G9A U16C G41A G58A cannot be ordered by yeast fitness: at most 0.5 for the first, at most 0.5 for the second.

U16A A21G C22U G48C G63C and U8A C55U C62U cannot be ordered by yeast fitness: at most 0.5 for the first, at most 0.5 for the second.

First: A36U A57G
Second: U32G G39C A43G G52C
The yeast fitness of the first is higher: 0.582 for the first, 0.571 for the second.

A20G C34G U47C and C24U C29G G48A A69U cannot be ordered by yeast fitness: at most 0.5 for the first, at most 0.5 for the second.

Compared with G17A G25C A65C, G9A C27A A42C C49G G51C C55G is lower in yeast fitness: 0.611 for the first, at most 0.5 for the second.

Going from A15C C34U A69C to C31U A36C, the yeast fitness rises from at most 0.5 to 0.842.

Compared with C11G U16A G23C C30U C34U G67U, A15C C46U G51A C66A is lower in yeast fitness: 0.537 for the first, at most 0.5 for the second.

G9A C49A C61U C62A G67C and U3C A21C C22G G38C A57C cannot be ordered by yeast fitness: at most 0.5 for the first, at most 0.5 for the second.

C11G A21U C49G and C4U C11G C29A U54A A57U cannot be ordered by yeast fitness: at most 0.5 for the first, at most 0.5 for the second.

U3A C31A C34A A37C C60G A65G and C30G C34G A37G A57U G63A cannot be ordered by yeast fitness: at most 0.5 for the first, at most 0.5 for the second.

Compared with U53C G58C, U2G A14C C30U is lower in yeast fitness: 0.977 for the first, at most 0.5 for the second.

First: C5G C29A U53C C62A G67A
Second: U2G C60A C66G
The yeast fitness of the first is lower: at most 0.5 for the first, 0.989 for the second.

C29U C34U C62A C66U and U3C G25A U54C C61G cannot be ordered by yeast fitness: at most 0.5 for the first, at most 0.5 for the second.

U8A U19A C29U A69U and G10A A40U C55U cannot be ordered by yeast fitness: at most 0.5 for the first, at most 0.5 for the second.

First: U13C A20U C34U
Second: C11U C46G G51A
The yeast fitness of the first is lower: at most 0.5 for the first, 0.571 for the second.

Going from C5A A69U A70C to A21C G51C A69U, the yeast fitness falls from 0.768 to at most 0.5.

C4G G17C C33G U47A G68C and A36C U59A A69G cannot be ordered by yeast fitness: at most 0.5 for the first, at most 0.5 for the second.

First: G12A A21U A40C A57C A70U
Second: U2A A20G G58C
The yeast fitness of the first is lower: at most 0.5 for the first, 0.973 for the second.

C34U A42C C66U and C29G U35G G41C cannot be ordered by yeast fitness: at most 0.5 for the first, at most 0.5 for the second.

U8A A20G C33A A57G and A14G C22U C29A cannot be ordered by yeast fitness: at most 0.5 for the first, at most 0.5 for the second.

C4A A14U A20C U28G A57U and U2G G6A G44C A65C cannot be ordered by yeast fitness: at most 0.5 for the first, at most 0.5 for the second.

G6A G12A A20G C22G U26A G48C and G10C C24G G44C A45G G51C C55A A69U cannot be ordered by yeast fitness: at most 0.5 for the first, at most 0.5 for the second.

Going from C27G G52A G63A to C5G G23A C34G, the yeast fitness falls from 0.533 to at most 0.5.

C11U C31U G38C U47C and C5U G25A C29A C55G cannot be ordered by yeast fitness: at most 0.5 for the first, at most 0.5 for the second.

C4G G9C G41A C55U and U28G U32A G38C G68A cannot be ordered by yeast fitness: at most 0.5 for the first, at most 0.5 for the second.

G6A U53C A57C and U2A C27A C49G C60U A69G cannot be ordered by yeast fitness: at most 0.5 for the first, at most 0.5 for the second.

First: U7G C27U A36C
Second: A36U G44C
The yeast fitness of the first is lower: at most 0.5 for the first, 0.629 for the second.

G9A U19C G48C G56C and A20G C22G G38C A42C G63A cannot be ordered by yeast fitness: at most 0.5 for the first, at most 0.5 for the second.

U7C G12A A20C A21G C24A C27A A36C and G17A G25A G48C C62A cannot be ordered by yeast fitness: at most 0.5 for the first, at most 0.5 for the second.

Compared with C5U A15G G48A G51C, A36G C62G is higher in yeast fitness: at most 0.5 for the first, 0.905 for the second.

Going from G17C U53G C62G to C4G C11U U28G A45C U53A G63C, the yeast fitness rises from at most 0.5 to 0.559.

G10C G25C U26C A57G and C27G G63C A70G cannot be ordered by yeast fitness: at most 0.5 for the first, at most 0.5 for the second.

A36U G38A C61U A70U and C5G C24G C61G cannot be ordered by yeast fitness: at most 0.5 for the first, at most 0.5 for the second.

Compared with G6A U19C C61G G63C A70G, U8C U28A is higher in yeast fitness: at most 0.5 for the first, 0.901 for the second.

C31G C60U G63C and U28A C34G C49G G68C cannot be ordered by yeast fitness: at most 0.5 for the first, at most 0.5 for the second.

First: C5U G17C U26G G68C
Second: A21U C33G A42G G44A
The yeast fitness of the first is lower: at most 0.5 for the first, 0.541 for the second.

U3A C11A A70G and U8C C30G C31G A57U A65U cannot be ordered by yeast fitness: at most 0.5 for the first, at most 0.5 for the second.

A40G G41C C55G and C27U A57U G63A cannot be ordered by yeast fitness: at most 0.5 for the first, at most 0.5 for the second.

C27G U28A A65U and A15G G17C C61U cannot be ordered by yeast fitness: at most 0.5 for the first, at most 0.5 for the second.

Variant A21G U28A C33A A36C has a yeast fitness of at most 0.5.
